# According to patent US20100016546A1 (priority 2005, published 2010):
# Assay: general procedure: Fmoc solid-phase peptide synthesis; Wang resin
# Settings: whole synthesis, scale 0.525 mmol
sequence,measurement,value
KSSTRGRKSSRRKK,isolated mass,approximately 39 mg

# Where a sequence shows no end group, the ends are not given.
